Our source for the binding values is paper PMC8574036.

Amino acid sequences for entries named in this document (tags omitted).
UniProt P51668: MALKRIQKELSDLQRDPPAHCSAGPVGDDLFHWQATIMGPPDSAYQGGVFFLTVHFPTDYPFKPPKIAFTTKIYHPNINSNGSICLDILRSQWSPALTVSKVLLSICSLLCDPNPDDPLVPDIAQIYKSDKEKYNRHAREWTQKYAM
UniProt Q13485: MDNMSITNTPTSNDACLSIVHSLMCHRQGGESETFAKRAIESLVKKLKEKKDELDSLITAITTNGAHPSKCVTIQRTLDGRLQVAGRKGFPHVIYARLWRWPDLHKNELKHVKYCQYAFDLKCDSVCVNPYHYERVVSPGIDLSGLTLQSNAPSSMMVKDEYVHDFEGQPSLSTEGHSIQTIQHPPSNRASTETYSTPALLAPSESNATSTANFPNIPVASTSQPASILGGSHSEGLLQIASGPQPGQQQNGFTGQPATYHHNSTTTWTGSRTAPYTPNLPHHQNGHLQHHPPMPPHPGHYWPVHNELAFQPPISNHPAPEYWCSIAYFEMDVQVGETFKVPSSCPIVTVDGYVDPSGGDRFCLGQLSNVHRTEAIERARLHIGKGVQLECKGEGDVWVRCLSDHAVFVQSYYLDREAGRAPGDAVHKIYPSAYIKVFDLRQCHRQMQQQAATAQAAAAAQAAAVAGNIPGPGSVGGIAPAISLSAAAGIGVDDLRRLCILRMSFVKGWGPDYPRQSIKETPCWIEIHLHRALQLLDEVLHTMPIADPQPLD

Results are given in words; binding and its absence hold for the method and conditions named. Binding seen in cells or lysates may run through a third protein. Some results given as binding are weak or reduced against the parent protein; the word gives no strength.

For the assay, the target named is ubiquitin-conjugating enzyme E2 D1 (UBE2D1) (human (in lysates of human cell lines; which line is not stated)) (UniProt P51668). As to the kind of experiment: co-IP; whole cellular lysates (RIPA lysis buffer) incubated with anti-UBE2D1 or anti-SMAD4 at 4 °C overnight, then protein A/G PLUS-Agarose beads at 4 °C for 2 h; eluted proteins detected by western blot with antibodies against SMAD4 or UBE2D1. A general note: A western blot detects proteins with antibodies after separation by electrophoresis.

Consider “mothers against decapentaplegic homolog 4 (SMAD4) (from UniProt Q13485 1-552)”, for which the binding result is “binds”.
